Measurements from US8715751B2, “Artemisinins in the clinical and veterinary management of kinetoplastid infections” (The United States of America as Represented by the …, priority 2006, dated 2014).
At least one structure is not confirmed: it was looked up by name or label, or the drawing left a doubt.

Test system: Leishmania major ATCC 50122 amastigotes
Assay: In vitro amastigote/macrophage culture drug screening
Format: cell-based
Conditions: 2.0 μM initial screen
Procedure: Preliminary drug screening (in vitro amastigote/macrophage culture) of artemisinin and artelinic acid compounds.
The four compounds were dissolved in the respective solvents as indicated in the table below (Table 1) and were tested against Leishmania major ATCC 50122 amastigotes in vitro in a mouse macrophage system. A positive (Pentostam) and negative (culture medium) controls were set for each plate. Compounds were tested at 2.0 μM in a total volume of 2-0 mls. Drug was added to well every 4 hours×1, 2 and 3, and results shown in (Table 2) below.
Because of the high potency of Artelinic acid relative to the other compounds, the experiments were repeated with different doses of Artelinic acid alone.

## C[C@H]1[C@@H](O)O[C@@H]2O[C@@]3(C)CC[C@H]4[C@H](C)CC[C@@H]1[C@@]24OO3 [Dihydroartemisinin, dihydroartemisinin]
  effectiveness ranking of the compounds in the screen: Artelinic acid>>>Dihydroartemisinin>Beta Arteether>>Artemisinin
